Several values for one entry are separate records, joined by “and”; a condition that tells them apart may be missing. Identical values can stand only once. The list shows a part of the results. The main result of the screen is listed elsewhere. These columns were measured beside it and carry no call. Most of these compounds were active or inconclusive in the main read-out, so they are no random draw. Words in brackets tell the shape of the fitted curve; partial curves, single points and poor fits give uncertain potencies.
Experiment: IkB Signaling
Conditions: ABC-DLBCL IkBa-CBG/CBR dual luciferase ratio (green luciferase fused to IkBa over red control in OCI-Ly3 lymphoma cells), 4 h
In short: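 In this assay, an IκBα–CBG68 fusion accumulates when IKK-driven degradation is blocked; native CBR normalizes for cell number. OCI-Ly3 cells were treated 4 h with compound and doxycycline, then green and red light read after Chroma-Glo addition.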

[1] = measured here: control luc red channel unless noted
[2] = measured here: IkB-luc green channel
[3] = measured here: control luc red channel

Cc1cccc(C(C)C)c1NC(=O)C(NS(=O)(=O)c1cccc2nsnc12)c1ccccc1 (stereo not given)
AC50 [1]: 10 µM [falling, partial curve]

Nc1c2ccccc2nc2ccccc12
AC50 [2]: 6.31 µM [rising, full curve] | AC50 [3]: 10 µM [rising, partial curve]

Cc1cccc(-n2ncc3c(NC(C)C)ncnc32)c1
AC50 [1]: 20 µM [falling, partial curve]

C[C@@H]1CNCCN1S(=O)(=O)c1cccc2cnccc12
AC50 [2]: 15.8 µM [falling, partial curve] and 25.1 µM [falling, partial curve, poor fit] | AC50 [3]: 15.8 µM [falling, partial curve] and 12.6 µM [falling, partial curve] and 5.01 µM [falling, partial curve]

CCOC(=O)c1scc(-c2ccccc2)c1S(=O)(=O)Nc1ccccc1OC
AC50 [1]: 3.98 µM [falling, partial curve]

N#Cc1nc(-c2ccc(COc3ccc(Cl)cc3)o2)oc1N1CCCCC1
AC50 [1]: 0.398 µM [falling, partial curve]

O=C1c2[nH]nc(-c3ccccc3O)c2C(c2cccc(OCc3ccccc3)c2)N1CCCO (stereo not given)
AC50 [1]: 25.1 µM [falling, partial curve]

CCc1cccc(C)c1Nc1c(-c2ccc(F)cc2)nc2sccn12
AC50 [1]: 15.8 µM [falling, partial curve]

Cc1ccc2c(=O)c(C(=O)c3ccccc3)cn(CC(=O)NCc3ccccc3)c2n1
AC50 [1]: 2.51 µM [falling, partial curve]

CCOc1ccc(NC(=O)CSc2ncc(S(=O)(=O)c3ccc(F)c(C)c3)c(=O)[nH]2)cc1
AC50 [1]: 39.8 µM [falling, single point]

CCOc1ccc(C2C(=O)N(C3CCCCC3)CC(=O)N2Cc2ccc(F)cc2)cc1OC (stereo not given)
AC50 [1]: 3.16 µM [rising, partial curve]

O=C(O)c1oc2ccccc2c1-n1cccc1
AC50 [1]: 15.8 µM [falling, partial curve]

Cc1cccc(CNC(=O)c2ccc3c(c2)N(C)CCS3)c1
AC50 [1]: 20 µM [falling, single point]

CC1(C)C(C=C(Cl)Cl)C1C(=O)N1CCN(c2ccccc2)CC1 (stereo not given)
AC50 [1]: 25.1 µM [falling, partial curve]

O=S(=O)(CCSc1nc2ccccc2o1)c1nc2ccccc2s1
AC50 [1]: 5.01 µM [falling, partial curve]

Cc1ccccc1CNC(=O)Cn1nc(C)c2nn(-c3ccc(Cl)cc3)c(C)c2c1=O
AC50 [1]: 0.0501 µM [falling, full curve]

COc1ccc(N2CCN(c3ncccc3-c3nc(-c4ccccc4C)no3)CC2)cc1
AC50 [1]: 25.1 µM [falling, single point]

CCc1cccc(C)c1NC(=O)CN1CCN(Cc2ccccc2Cl)S1(=O)=O
AC50 [1]: 10 µM [falling, partial curve]

CCc1ccc(NC(=O)Cn2c(=O)c3cccn3c3ccccc32)cc1
AC50 [1]: 10 µM [falling, partial curve]

Cc1nn(-c2ccccc2)c(C)c1C(=O)OCC(=O)Nc1ccc2c(c1)OCO2
AC50 [1]: 15.8 µM [falling, partial curve]

CCN(CC)S(=O)(=O)c1ccc2c(c1)N(CC(=O)N1CCN(c3cccc(C)c3)C(C)C1)C(=O)CO2 (stereo not given)
AC50 [1]: 7.94 µM [falling, partial curve]

COc1ccc(-c2csc3nc(-c4ccc(Cl)cc4)oc(=O)c23)cc1
AC50 [1]: 3.16 µM [falling, full curve]

Cc1cccc(NC(=O)CCn2cnnn2)c1
AC50 [1]: 5.01 µM [falling, full curve]

COc1cc(C(=O)Nc2ccc3nc4n(c(=O)c3c2)CCCCC4)cc(OC)c1OC
AC50 [1]: 15.8 µM [falling, partial curve]

CCOC(=O)c1ccoc1CSCc1ccc(C(=O)OC)o1
AC50 [2]: 39.8 µM [rising, single point] | AC50 [3]: 15.8 µM [rising, partial curve]

COc1ccccc1-n1cnc2cc(NCc3ccco3)ccc21
AC50 [1]: 10 µM [falling, partial curve]

O=S(=O)(Nc1ccc2c(c1)OCCO2)c1ccc2oc3ccccc3c2c1
AC50 [1]: 15.8 µM [falling, partial curve]

COc1ccc(S(=O)(=O)N2CCC(Oc3cccc(C(F)(F)F)c3)CC2)cc1OC
AC50 [1]: 25.1 µM [falling, single point]

CCc1cccc(NC(=O)c2cnc(N3CCOCC3)c3ccccc23)c1
AC50 [1]: 6.31 µM [rising, single point]

CCOC(=O)c1cc(-c2ccccc2)n(CCCC(=O)Nc2ccc(C)c(Cl)c2)c1C
AC50 [1]: 3.98 µM [rising, partial curve]

Cc1ccc(-n2c(=O)c3c(C)c(C(=O)N(C)C)sc3n(CC(=O)N(C)c3ccccc3)c2=O)cc1C
AC50 [1]: 0.0158 µM [rising, full curve]

Cc1ccc(C)c(NC(=O)CSc2nc3nccnc3c(=O)n2CCc2c[nH]c3ccccc23)c1
AC50 [1]: 12.6 µM [falling, partial curve]

Cc1ccc(-c2nnc(SCC(=O)N3c4ccccc4NC(=O)C3(C)C)n2N)cc1
AC50 [1]: 2.51 µM [falling, full curve]

CCOc1ccc2c(ccc(/C=C\c3cc(C)c4cccnc4c3O)[n+]2C)c1
AC50 [1]: 3.98 µM [falling, partial curve]

COc1cc(C(=O)NCCc2sc(-c3ccc(C)cc3)nc2C)cc(OC)c1OC
AC50 [1]: 20 µM [falling, single point]

CC1CCN(C(=O)Cn2cc(SCC(=O)NCc3ccc(F)cc3)c3ccccc32)CC1
AC50 [1]: 10 µM [falling, partial curve]

CCCCc1ccc(C(=O)c2c(N)c(C(=O)Nc3cccc(OC)c3)c3ccccn23)cc1
AC50 [1]: 10 µM [rising, partial curve]

O=C(CSc1nnc(-c2ccccc2Cl)n1Cc1ccco1)Nc1ccc2c(c1)OCCO2
AC50 [1]: 12.6 µM [falling, partial curve]

COc1ccc(C(=O)/C=C/c2cn(CC(O)CN3CCCCCC3)c3ccccc23)cc1OC (stereo not given)
AC50 [1]: 25.1 µM [falling, partial curve]

COc1ccc(NC(=O)CSc2nc3ccccc3nc2N2CCOCC2)c(OC)c1
AC50 [1]: 39.8 µM [falling, single point]

CCc1ccc(NC(=O)CCc2c(C)nn(-c3ccc(N4CCCC4)nn3)c2C)cc1
AC50 [1]: 25.1 µM [falling, single point]

C=CC(C)(C)c1[nH]c2ccccc2c1C1=C(O)C(=O)C(c2c[nH]c3c(CC=C(C)C)cccc23)=C(O)C1=O
AC50 [1]: 39.8 µM [falling, partial curve]

COc1ccc(-c2nc3ccccc3o2)cc1NC(=O)COc1cc(C)cc(C)c1
AC50 [1]: 7.94 µM [rising, full curve]

COc1ccc(NS(=O)(=O)c2cnc(N)nc2)cc1Cl
AC50 [1]: 0.00501 µM [falling, full curve, poor fit]

CCCn1c(NCc2cc(OC)ccc2OC)nc2ccccc21
AC50 [1]: 12.6 µM [falling, partial curve]

COc1ccc(NC(=O)CCS(=O)(=O)c2cc3c4c(c2)CCN4C(=O)CC3)c(OC)c1
AC50 [2]: 0.794 µM [rising, single point] | AC50 [3]: 0.794 µM [rising, full curve]

O=C(COc1ccc2oc3c(c2c1)CCCC3)Nc1cccc(Br)c1
AC50 [1]: 25.1 µM [falling, partial curve]

Cn1c(=O)oc2cc(S(=O)(=O)N3CCC4(CC3)OCCO4)ccc21
AC50 [1]: 2 µM [falling, full curve, poor fit]

CCC(C)NC(=O)CCCn1c(=O)c2cccn2c2ccccc21 (stereo not given)
AC50 [1]: 39.8 µM [falling, single point]

Cc1ccc2nc(-c3ccccc3Cl)cc(C(=O)Nc3cc(C)on3)c2c1
AC50 [1]: 10 µM [falling, partial curve]

COc1ccc(C2C(=O)N(C3CCCCCC3)CC(=O)N2CCc2ccc(Cl)cc2)cc1OC (stereo not given)
AC50 [1]: 3.16 µM [rising, single point]

CCC(C(=O)NC1CCCCC1)n1c(SCc2ccccc2F)nc2ccncc21 (stereo not given)
AC50 [1]: 15.8 µM [falling, partial curve]

CCc1ccc(NC(=O)CSc2ccc(-c3sc(-c4ccccc4)nc3C)nn2)cc1
AC50 [1]: 1.58 µM [falling, full curve]

Nn1c(SCC(=O)Nc2ccc(F)c(F)c2)nnc1C1CCCCC1
AC50 [1]: 5.01 µM [falling, partial curve]

Cc1ccc(C2CC(=O)N(Cc3ccc(F)cc3)c3c2c(C)nn3-c2nc(C)cc(C)n2)cc1 (stereo not given)
AC50 [1]: 15.8 µM [falling, single point]

O=C(CN1CCN(Cc2ccc(F)cc2)C1=O)NCc1ccc(F)cc1
AC50 [1]: 0.0251 µM [falling, full curve, poor fit]

CCOC(=O)Cn1c(CN(C)Cc2ccccc2)nc2c1c(=O)n(C)c(=O)n2C
AC50 [1]: 39.8 µM [falling, single point]

Cc1ccc(NC2(c3ccccc3)C(=O)c3ccccc3C2=O)cc1F
AC50 [1]: 2.51 µM [falling, partial curve]

CC1CCN(S(=O)(=O)c2ccc3c(c2)N(CC(=O)NCCCOC(C)C)C(=O)CO3)CC1
AC50 [1]: 5.01 µM [falling, single point]

CCc1ccccc1NC(=O)CN(c1ccccc1OC)S(=O)(=O)c1ccc(C)cc1
AC50 [1]: 20 µM [falling, partial curve]

Cc1ccsc1CN(C(=O)COc1ccccc1Cl)C1CCS(=O)(=O)C1 (stereo not given)
AC50 [1]: 25.1 µM [falling, single point]

Reference: PubChem BioAssay AID445 (National Center for Advancing Translational Sciences (NCATS), 2006)
